Laboratory results from ChEMBL document CHEMBL2086222, “Bioassay-guided isolation of prenylated xanthones and polycyclic acylphloroglucinols from the leaves of Garcinia nujiangensis” (J Nat Prod, 2012).

Tested on: HepG2
Experiment: Cytotoxicity against human HepG2 cells assessed as reduction in cell viability after 72 hrs by MTT assay
Assay type: functional, cell-based
Conditions: HepG2, 72 h

Q: For `CC(=O)O[C@H]1C(=O)[C@@]2(C)[C@H]([C@H](OC(=O)c3ccccc3)[C@]3(O)C[C@H](OC(=O)[C@H](O)[C@@H](NC(=O)c4ccccc4)c4ccccc4)C(C)=C1C3(C)C)[C@]1(OC(C)=O)CO[C@@H]1C[C@@H]2O` [PACLITAXEL], which IC50 is on record?
A: The IC50 was 440 pM.
